Test results reported in publication PMC3630084.
No constants are given. Whether binding was seen depends on the method and setting. Binding seen in cells or lysates may run through a third protein. Some binding calls cover weakened binding; strength is not graded here. For part of these data: Tags and fused reporters may be left off the sequences shown.

Sequences of proteins named here, by UniProt entry; tags and fusion partners are left off.
UniProt Q92879: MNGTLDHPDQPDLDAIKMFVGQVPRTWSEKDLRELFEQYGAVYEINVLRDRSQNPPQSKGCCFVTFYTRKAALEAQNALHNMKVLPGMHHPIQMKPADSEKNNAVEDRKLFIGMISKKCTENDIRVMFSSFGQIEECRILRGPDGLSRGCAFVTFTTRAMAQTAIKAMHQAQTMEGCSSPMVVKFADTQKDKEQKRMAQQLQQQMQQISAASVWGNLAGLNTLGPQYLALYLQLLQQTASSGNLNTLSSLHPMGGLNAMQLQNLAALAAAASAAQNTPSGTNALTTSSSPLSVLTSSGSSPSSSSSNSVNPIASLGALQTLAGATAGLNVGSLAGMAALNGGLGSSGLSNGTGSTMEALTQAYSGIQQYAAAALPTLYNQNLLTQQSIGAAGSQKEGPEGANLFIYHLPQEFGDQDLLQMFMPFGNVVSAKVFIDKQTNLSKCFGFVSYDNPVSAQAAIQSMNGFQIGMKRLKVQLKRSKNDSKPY
UniProt P05198: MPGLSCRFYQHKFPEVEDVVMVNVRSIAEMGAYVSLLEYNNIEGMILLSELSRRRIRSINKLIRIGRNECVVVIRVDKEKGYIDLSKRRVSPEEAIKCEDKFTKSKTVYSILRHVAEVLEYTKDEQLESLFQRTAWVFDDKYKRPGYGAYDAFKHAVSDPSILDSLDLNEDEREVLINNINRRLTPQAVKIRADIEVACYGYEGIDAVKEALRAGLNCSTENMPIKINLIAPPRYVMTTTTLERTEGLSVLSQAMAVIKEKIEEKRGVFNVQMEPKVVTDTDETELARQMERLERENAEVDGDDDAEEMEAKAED

Tests used:
[1] = biological target: CUGBP1 (human (endogenous in primary human myoblasts and fibroblasts)) (UniProt Q92879); assay: co-IP; 100 µg of cytoplasmic protein from control GFP-transfected DM1 myoblasts/fibroblasts; precipitated with CUGBP1 antibodies, probed with antibody to pS51-eIF2α; Trueblot protocol
[2] = biological target: CUGBP1 (human (endogenous in primary human myoblasts and fibroblasts)) (UniProt Q92879); assay: condition: only in SMAUG1-transfected DM1 myoblasts and fibroblasts; co-IP; 100 µg of cytoplasmic protein from SMAUG1-transfected DM1 myoblasts and fibroblasts; precipitated with CUGBP1 antibodies, probed with antibody to pS51-eIF2α; Trueblot protocol
[3] = biological target: CUGBP1 (human (endogenous in primary human myoblasts and fibroblasts)) (UniProt Q92879); assay: co-IP; extracts from SMAUG1-V5-transfected normal and DM1 human myoblasts; anti-CUGBP1 3B1 antibody coupled to Dynabeads M-270 Epoxy, Dynabeads Co-Immunoprecipitation kit; SMAUG1 visualized with anti-V5-HRP

Molecule | binding [1] | binding [2] | binding [3]
pS51-eIF2α (eukaryotic translation initiation factor eIF2α phosphorylated at S51) (from UniProt P05198 1-315) | binds | no binding | 
SMAUG1-V5 (human SMAUG1/SAMD4A) (protein, UniProt Q9UPU9 1-718) MMFRDQVGVLAGWFKGWNECEQTVALLSLLKRVSQTQARFLQLCLEHSLADCAELHVLEREANSPGIINQWQQESKDKVISLLLTHLPLLKPGNLDAKVEYMKLLPKILAHSIEHNQHIEESRQLLSYALIHPATSLEDRSALAMWLNHLEDRTSTSFGGQNRGRSDSVDYGQTHYYHQRQNSDDKLNGWQNSRDSGICINASNWQDKSMGCENGHVPLYSSSSVPTTINTIGTSTSTILSGQAHHSPLKRSVSLTPPMNVPNQPLGHGWMSHEDLRARGPQCLPSDHAPLSPQSSVASSGSGGSEHLEDQTTARNTFQEEGSGMKDVPAWLKSLRLHKYAALFSQMTYEEMMALTECQLEAQNVTKGARHKIVISIQKLKERQNLLKSLERDIIEGGSLRIPLQELHQMILTPIKAYSSPSTTPEARRREPQAPRQPSLMGPESQSPDCKDGAAATGATATPSAGASGGLQPHQLSSCDGELAVAPLPEGDLPGQFTRVMGKVCTQLLVSRPDEENISSYLQLIDKCLIHEAFTETQKKRLLSWKQQVQKLFRSFPRKTLLDISGYRQQRNRGFGQSNSLPTAGSVGGGMGRRNPRQYQIPSRNVPSARLGLLGTSGFVSSNQRNTTATPTIMKQGRQNLWFANPGGSNSMPSRTHSSVQRTRSLPVHTSPQNMLMFQQPEFQLPVTEPDINNRLESLCLSMTEHALGDGVDRTSTI |  |  | binds
